Test results reported in paper PMC11271578.
No constants are given. Whether binding was seen depends on the method and setting. Binding seen in cells or lysates may run through a third protein. Here binding means that the protein was enriched with, or labelled near, the bait; the list need not be complete.

Chains of the proteins cited; added tags and fusions are not shown.
UniProt Q8NFA0: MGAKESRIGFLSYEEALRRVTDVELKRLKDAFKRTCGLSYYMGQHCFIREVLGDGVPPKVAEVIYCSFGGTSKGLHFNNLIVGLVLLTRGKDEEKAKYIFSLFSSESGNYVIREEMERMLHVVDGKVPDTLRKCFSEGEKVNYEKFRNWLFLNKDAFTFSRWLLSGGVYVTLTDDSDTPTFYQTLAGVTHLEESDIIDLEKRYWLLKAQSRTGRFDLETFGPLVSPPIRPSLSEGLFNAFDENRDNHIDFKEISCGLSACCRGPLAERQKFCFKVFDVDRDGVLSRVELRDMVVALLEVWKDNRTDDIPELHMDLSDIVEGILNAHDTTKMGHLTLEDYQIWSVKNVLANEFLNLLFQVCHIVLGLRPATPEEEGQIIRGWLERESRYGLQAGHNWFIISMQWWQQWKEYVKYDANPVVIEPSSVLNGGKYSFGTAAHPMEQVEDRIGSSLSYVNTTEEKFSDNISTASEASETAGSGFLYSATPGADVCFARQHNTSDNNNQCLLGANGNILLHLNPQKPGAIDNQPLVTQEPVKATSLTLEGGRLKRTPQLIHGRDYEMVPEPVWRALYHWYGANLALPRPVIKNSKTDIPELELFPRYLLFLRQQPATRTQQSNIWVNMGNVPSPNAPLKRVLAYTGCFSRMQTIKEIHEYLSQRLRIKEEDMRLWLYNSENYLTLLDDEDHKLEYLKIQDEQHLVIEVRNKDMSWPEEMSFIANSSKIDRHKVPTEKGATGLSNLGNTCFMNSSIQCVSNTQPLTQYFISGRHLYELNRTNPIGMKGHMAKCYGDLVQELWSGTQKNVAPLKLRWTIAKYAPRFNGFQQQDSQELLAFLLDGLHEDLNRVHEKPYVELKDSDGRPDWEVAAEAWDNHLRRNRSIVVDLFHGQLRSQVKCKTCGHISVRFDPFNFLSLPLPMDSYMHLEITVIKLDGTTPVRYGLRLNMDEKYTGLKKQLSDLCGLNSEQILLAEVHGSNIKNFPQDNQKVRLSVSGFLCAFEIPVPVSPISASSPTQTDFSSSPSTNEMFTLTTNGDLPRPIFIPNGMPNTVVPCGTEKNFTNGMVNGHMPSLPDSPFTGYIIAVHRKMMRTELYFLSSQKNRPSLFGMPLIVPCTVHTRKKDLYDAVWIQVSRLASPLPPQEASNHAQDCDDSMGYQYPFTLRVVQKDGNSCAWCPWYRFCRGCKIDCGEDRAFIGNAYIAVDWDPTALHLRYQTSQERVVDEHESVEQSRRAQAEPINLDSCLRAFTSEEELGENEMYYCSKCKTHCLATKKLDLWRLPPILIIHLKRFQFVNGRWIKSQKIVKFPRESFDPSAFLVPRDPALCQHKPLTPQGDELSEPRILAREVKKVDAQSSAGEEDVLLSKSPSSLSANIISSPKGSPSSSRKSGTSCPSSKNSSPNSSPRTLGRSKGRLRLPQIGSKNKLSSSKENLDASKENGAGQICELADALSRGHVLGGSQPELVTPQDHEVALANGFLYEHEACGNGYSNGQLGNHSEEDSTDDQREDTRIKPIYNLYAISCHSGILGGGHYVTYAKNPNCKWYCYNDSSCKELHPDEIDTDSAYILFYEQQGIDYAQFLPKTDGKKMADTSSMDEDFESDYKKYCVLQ
UniProt O95817: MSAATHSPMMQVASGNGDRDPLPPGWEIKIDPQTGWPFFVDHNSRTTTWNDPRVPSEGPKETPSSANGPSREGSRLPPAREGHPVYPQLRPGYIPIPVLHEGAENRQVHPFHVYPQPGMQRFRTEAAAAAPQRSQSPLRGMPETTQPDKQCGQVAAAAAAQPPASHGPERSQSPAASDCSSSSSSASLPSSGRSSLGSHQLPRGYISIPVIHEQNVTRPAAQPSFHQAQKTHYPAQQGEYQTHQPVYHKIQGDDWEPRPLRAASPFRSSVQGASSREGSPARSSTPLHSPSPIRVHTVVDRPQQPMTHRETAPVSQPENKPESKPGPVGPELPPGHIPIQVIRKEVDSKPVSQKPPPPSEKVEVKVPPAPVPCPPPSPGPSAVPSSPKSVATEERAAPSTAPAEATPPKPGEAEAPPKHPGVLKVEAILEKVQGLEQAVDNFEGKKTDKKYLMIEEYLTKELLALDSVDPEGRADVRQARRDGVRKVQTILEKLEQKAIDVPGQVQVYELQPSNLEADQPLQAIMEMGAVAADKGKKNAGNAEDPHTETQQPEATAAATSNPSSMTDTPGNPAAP

Biological target: Myc-tagged USP32 (ubiquitin-specific peptidase 32) (human) (UniProt Q8NFA0)
Assay: affinity purification with mass spectrometry; H1299 cells transfected with Myc vector or Myc-USP32 for 48 h; USP32-binding proteins immunoprecipitated with anti-Myc antibody, separated on a gel, Coomassie stained, a framed band analysed by mass spectrometry

“Bcl2-associated athanogene 3 (BAG3), endogenous (from UniProt O95817 1-575)” was tested. Which binding did it give?
The binding was “binds”.
